Some entries share one result that the patent states for a list of compounds.
Molecular target: T1, α7 nAChR (Homo sapiens, UniProt P36544)
T1 construct: human IMR-32 cells with native expression of α7 nAChR; endogenous in cells; host or cells: IMR-32 (human neuroblastoma)
Assay: Cell-based real-time kinetic FLIPR Ca2+ assay: potentiation of agonist (PNU-282987) response (fold PAM activity)
Settings: 1 μM test compound; human IMR-32 cells with native α7 nAChR; agonist PNU-282987 10 μM; fold increase over agonist-alone effect

Amino acid sequences for entries named in this document (tags omitted). Residues count along the entry.
UniProt P36544, 23-502: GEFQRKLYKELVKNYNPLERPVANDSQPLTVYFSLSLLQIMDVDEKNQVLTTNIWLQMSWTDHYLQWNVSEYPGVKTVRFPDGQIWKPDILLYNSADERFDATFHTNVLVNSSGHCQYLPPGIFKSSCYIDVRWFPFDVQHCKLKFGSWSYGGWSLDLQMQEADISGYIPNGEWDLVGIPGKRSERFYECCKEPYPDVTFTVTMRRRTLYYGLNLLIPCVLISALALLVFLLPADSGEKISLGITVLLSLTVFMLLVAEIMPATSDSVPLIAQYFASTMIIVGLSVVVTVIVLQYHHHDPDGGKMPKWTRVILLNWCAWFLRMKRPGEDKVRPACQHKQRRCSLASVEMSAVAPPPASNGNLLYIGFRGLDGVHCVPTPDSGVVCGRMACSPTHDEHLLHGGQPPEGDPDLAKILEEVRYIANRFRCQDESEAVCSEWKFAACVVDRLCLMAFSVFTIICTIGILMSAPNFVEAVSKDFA

CCC(=O)c1c(-c2ccc(S(N)(=O)=O)cc2)c(-c2ccc(Cl)cc2)c(C)n1C [Compound 1, 4-(4-(4-chlorophenyl)-1,5-dimethyl-2-propionyl-1H-pyrrol-3-yl)benzenesulfonamide]
Fold activation at 1 μM conc. (Group): A (the compounds with activity between 2 to 15 folds are grouped as A)

CCC(=O)c1c(-c2ccc(S(N)(=O)=O)cc2)c(-c2ccc(F)cc2)c(C)n1C [Compound 2, 4-(4-(4-fluorophenyl)-1,5-dimethyl-2-propionyl-1H-pyrrol-3-yl)benzenesulfonamide]
Fold activation at 1 μM conc. (Group): B (the compounds with activity above 15 folds are grouped as B)

CCC(=O)c1c(-c2ccc(S(N)(=O)=O)cc2)c(-c2ccc(Cl)c(C)c2)c(C)n1C [Compound 3, 4-(4-(4-chloro-3-methylphenyl)-1,5-dimethyl-2-propionyl-1H-pyrrol-3-yl)benzenesulfonamide]
Fold activation at 1 μM conc. (Group): B (the compounds with activity above 15 folds are grouped as B)

CCC(=O)c1c(-c2ccc(S(N)(=O)=O)cc2)c(-c2ccc(Cl)cc2)c(CC)n1C [Compound 4, 4-(4-(4-chlorophenyl)-5-ethyl-1-methyl-2-propionyl-1H-pyrrol-3-yl)benzenesulfonamide]
Fold activation at 1 μM conc. (Group): B (the compounds with activity above 15 folds are grouped as B)

CCC(=O)c1c(-c2ccc(S(N)(=O)=O)c(F)c2)c(-c2ccc(Cl)cc2)c(C)n1C [Compound 5, 4-(4-(4-chlorophenyl)-1,5-dimethyl-2-propionyl-1H-pyrrol-3-yl)-2-fluorobenzenesulfonamide]
Fold activation at 1 μM conc. (Group): A (the compounds with activity between 2 to 15 folds are grouped as A)

CCC(=O)c1c(-c2ccc(S(N)(=O)=O)cc2F)c(-c2ccc(Cl)cc2)c(C)n1C [Compound 6, 4-(4-(4-chlorophenyl)-1,5-dimethyl-2-propionyl-1H-pyrrol-3-yl)-3-fluorobenzenesulfonamide]
Fold activation at 1 μM conc. (Group): A (the compounds with activity between 2 to 15 folds are grouped as A)

CCC(=O)c1c(-c2ccc(S(N)(=O)=O)cc2)c(-c2ccc(Cl)cc2)c(C)n1CC [Compound 7, 4-(4-(4-chlorophenyl)-1-ethyl-5-methyl-2-propionyl-1H-pyrrol-3-yl)benzenesulfonamide]
Fold activation at 1 μM conc. (Group): A (the compounds with activity between 2 to 15 folds are grouped as A)

CCC(=O)c1c(-c2ccc(S(N)(=O)=O)cc2)c(-c2ccc(F)c(F)c2)c(C)n1C [Compound 8, 4-(4-(3,4-difluorophenyl)-1,5-dimethyl-2-propionyl-1H-pyrrol-3-yl)benzenesulfonamide]
Fold activation at 1 μM conc. (Group): B (the compounds with activity above 15 folds are grouped as B)

CCC(=O)c1c(-c2ccc(S(N)(=O)=O)cc2)c(-c2ccc(F)cc2F)c(C)n1C [Compound 9, 4-(4-(2,4-difluorophenyl)-1,5-dimethyl-2-propionyl-1H-pyrrol-3-yl)benzenesulfonamide]
Fold activation at 1 μM conc. (Group): B (the compounds with activity above 15 folds are grouped as B)

CCC(=O)c1c(-c2ccc(S(N)(=O)=O)cc2)c(-c2cccc(F)c2)c(C)n1C [Compound 10, 4-(4-(3-fluorophenyl)-1,5-dimethyl-2-propionyl-1H-pyrrol-3-yl)benzenesulfonamide]
Fold activation at 1 μM conc. (Group): B (the compounds with activity above 15 folds are grouped as B)

CCC(=O)c1c(-c2ccc(S(N)(=O)=O)cc2)c(-c2ccc(F)c(C)c2)c(C)n1C [Compound 11, 4-(4-(4-fluoro-3-methylphenyl)-1,5-dimethyl-2-propionyl-1H-pyrrol-3-yl)benzenesulfonamide]
Fold activation at 1 μM conc. (Group): B (the compounds with activity above 15 folds are grouped as B)

CCC(=O)c1c(-c2ccc(S(N)(=O)=O)cc2)c(-c2ccc(C)cc2)c(C)n1C [Compound 12, 4-(1,5-dimethyl-2-propionyl-4-(p-tolyl)-1H-pyrrol-3-yl)benzenesulfonamide]
Fold activation at 1 μM conc. (Group): B (the compounds with activity above 15 folds are grouped as B)

CCC(=O)c1c(-c2ccc(S(N)(=O)=O)cc2)c(-c2ccc(Cl)cc2F)c(C)n1C [Compound 13, 4-(4-(4-chloro-2-fluorophenyl)-1,5-dimethyl-2-propionyl-1H-pyrrol-3-yl)benzenesulfonamide]
Fold activation at 1 μM conc. (Group): B (the compounds with activity above 15 folds are grouped as B)

CCC(=O)c1c(-c2ccc(S(N)(=O)=O)cc2)c(-c2ccc(Cl)c(F)c2)c(C)n1C [Compound 14, 4-(4-(4-chloro-3-fluorophenyl)-1,5-dimethyl-2-propionyl-1H-pyrrol-3-yl)benzenesulfonamide]
Fold activation at 1 μM conc. (Group): B (the compounds with activity above 15 folds are grouped as B)

CCCc1c(-c2ccc(Cl)cc2)c(-c2ccc(S(N)(=O)=O)cc2)c(C(=O)CC)n1C [Compound 15, 4-(4-(4-chlorophenyl)-1-methyl-2-propionyl-5-propyl-1H-pyrrol-3-yl)benzenesulfonamide]
Fold activation at 1 μM conc. (Group): A (the compounds with activity between 2 to 15 folds are grouped as A)

Cc1c(-c2ccc(Cl)cc2)c(-c2ccc(S(N)(=O)=O)cc2)c(C(=O)c2cccnc2)n1C [Compound 16, 4-(4-(4-chlorophenyl)-1,5-dimethyl-2-nicotinoyl-1H-pyrrol-3-yl)benzenesulfonamide]
Fold activation at 1 μM conc. (Group): A (the compounds with activity between 2 to 15 folds are grouped as A)

Source: patent US9504680B2, “Pyrrole derivatives as alpha 7 nAChR modulators” (Lupin Limited, priority 2013, dated 2016)
